Laboratory results reported in the supplement of paper PMC7858590.
± gives the standard deviation of the averaged measurements. The full ranking holds about 3,800 compounds; the median of “cell shape (eccentricity) Z-score vs DMSO control” is about 1.1, and the lowest 2% start at about -4.7. The list shows a part of the results.

Each compound was assayed on human monocyte-derived macrophages (M0) (assay: cell shape (eccentricity) Z-score vs DMSO control; higher = more elongated, M2-like morphology). Conditions: 20 µM; 24 h; macrophage state: M0 (M-CSF).

Compound | cell shape (Z-score)
C=CCN1CCc2nc(N)sc2CC1 | 2.36
CN(C)c1nc(N(C)C)nc(N(C)C)n1 | 0.599
OCC1OC(n2cnc3c(NC4CCCC4)ncnc32)C(O)C1O (centres undefined) | 4.05
COc1cc2ncn(-c3cc(OCc4ccccc4S(C)(=O)=O)c(C#N)s3)c2cc1OC | 2.19
NNC(=O)c1ccncc1 | -1.03
Clc1ccc(-c2nc3sccn3c2/C=N/OCc2ccc(Cl)c(Cl)c2)cc1 | 0.243
CN1CCC(=C2c3ccccc3CCc3sccc32)CC1 | -2.26
COc1cc(CCC(O)CC(=O)CCc2ccc(O)cc2)ccc1O (centres undefined) | 1.04
CC1OC(Oc2ccc(-c3cc(=O)c4c(O)cc(OC5OC(CO)C(O)C(O)C5O)cc4o3)cc2)C(O)C(O)C1O (centres undefined) | 0.721 ± 2.7
COc1cc2c(cc1-c1coc3cc(O[C@@H]4O[C@H](CO)[C@@H](O)[C@H](O)[C@H]4O)ccc3c1=O)OCO2 | 2.47
O=C(NOCC(O)CO)c1cc(Br)c(F)c(F)c1Nc1ccc(I)cc1F (centres undefined) | -0.375
C/C(=C/COc1c(OC2OC(CO)C(O)C(O)C2O)ccc2ccc(=O)oc12)CO (centres undefined) | 3.07 ± 1.4
C/C=C/C#CC#C[C@@H](O[C@@H]1O[C@H](CO)[C@@H](O)[C@H](O)[C@H]1O)[C@H](O)/C=C/CCCO | -5.71
OC1COC(OCC2OC(OCc3ccccc3)C(O)C(O)C2O)C(O)C1O (centres undefined) | 2.15
CCCCCCCNS(=O)(=O)c1cccc2c(Cl)cccc12 | 0.986
CC1=CC(=O)OC1(O)CCC(C)CC(=O)O (centres undefined) | 0.759
CCCCc1oc2ccccc2c1C(=O)c1cc(I)c(OCCN(CC)CC)c(I)c1 | 4.05
O=c1oc(Cl)c(Cl)c2ccccc12 | 0.54
CCOc1ccc2c(c1)C(C)=CC(C)(C)N2 | 0.434
COc1ccc(CCc2cc(OC)cc(=O)o2)cc1 | -1.054 ± 0.0014
CC(C)c1ccc(Cn2ccc3c4c(N)nc(NC5CC5)nc4ccc32)cc1 | -4.69
CCOc1ccc(Cc2nccc3cc(OCC)c(OCC)cc23)cc1OCC | 4.7
CN1CCCN=C1COC(=O)C(O)(c1ccccc1)C1CCCCC1 (centres undefined) | 0.631

Compound | cell shape (Z-score)
Cc1nc2n(c(=O)c1CCN1CCC(c3noc4cc(F)ccc34)CC1)CCCC2 | -1.11
COc1ccc(-c2cc(=O)c3c(OC)c(OC)c(OC)c(OC)c3o2)cc1 [listing 1 of 2 here] | 3.86
CC(=O)c1ccc(O[C@@H]2O[C@H](CO)[C@@H](O)[C@H](O)[C@H]2O)c(/C=C/C(C)(C)O)c1 | -0.664
COc1ccc(-c2cc(=O)c3c(OC)c(OC)c(OC)c(OC)c3o2)cc1 [listing 2 of 2 here] | 2.3
CC(C)=CCc1c(O)cc2oc(C)cc(=O)c2c1O | 4.53
CC(C=CC=C(C=CC1=C(C)CCCC1(C)C)c1ccc(C)cc1)=CC(=O)O | -2.02
O=C(O)CCC/C=C\C[C@@H]1CO[C@H](C(F)(F)F)O[C@@H]1c1ccccc1O | -2.6
CC12CC3CC(C)(C1)CC(N)(C3)C2 | 1.66
O=C(O)CCC1OC(=O)C(=O)C1c1ccccc1 (centres undefined) | -0.0949
COc1ccc2oc(-c3ccccc3)cc(=O)c2c1 | 1.24
CC(C)n1cnc2c(NCc3ccccc3)nc(NCCO)nc21 | 8.04
C[C@]12CCC3c4ccc(O)cc4CC[C@H]3C1CC[C@H]2O (some centres undefined) | 2.17 ± 0.22
C/C(=C\CCC(C)C1CC(O)C2(C)C3CCC4C(C)(C)C(OC5OCC(O)C(O)C5O)CCC45CC35CC(O)C12C)C(=O)O (centres undefined) | 0.534
CC(=O)O[C@@H]1[C@@H](OC(=O)/C=C/c2ccccc2)[C@@H](OC(=O)/C=C/c2ccccc2)[C@H](O[C@H]2[C@@H]3C=CO[C@@H](O[C@@H]4O[C@H](CO)[C@@H](O)[C@H](O)[C@H]4O)[C@@H]3[C@@]3(CO)O[C@@H]23)O[C@H]1C | 0.429 ± 1.5
CC(C)=CCCC1(C)C=Cc2c(ccc3c2[nH]c2cc(O)c(C)cc23)O1 (centres undefined) | 1.36
CC(C)(O)C1Cc2cc(CCc3cc(O)cc(O)c3)ccc2O1 (centres undefined) | 2.22
Cn1ccc2cc3c(cc21)CCN3C(=O)Nc1cccnc1 | 0.667
Cc1c(C(=O)N(C)C2CCCCC2)sc2nc3ccc(N)cc3n12 | -0.53
CCOc1nc2cccc(C(=O)OC(C)OC(=O)OC3CCCCC3)c2n1Cc1ccc(-c2ccccc2-c2nnn[nH]2)cc1 (centres undefined) | -4.32
Cc1cc2nc3c(=O)[nH]c(=O)nc-3n(C[C@@H](O)[C@@H](O)[C@@H](O)CO)c2cc1C | 0.422
CC(C)(C)c1cc(O)c(C(C)(C)C)cc1O | 0.862
O=C(NC1CCCCC1)C(c1ccccc1Cl)N(C(=O)Cc1cccs1)c1cccc(F)c1 (centres undefined) | 2.3
NCCCCCc1cnc[nH]1 | -0.662

Compound | cell shape (Z-score)
CCCCCCCCN[C@H](C)[C@@H](O)c1ccc(SC(C)C)cc1 | -2.88
Cc1nnc(SCC2=C(C(=O)O)N3C(=O)[C@@H](N)[C@H]3SC2)s1 | 2.87
CC(C)(C)CC(C)(C)c1ccc(OCCOCC[N+](C)(C)Cc2ccccc2)cc1 | -0.216
Nc1nc(NCC2CCC(CNS(=O)(=O)c3cccc4ccccc34)CC2)nc2ccccc12 (centres undefined) | 3.52
CC(=O)O[C@H]1[C@H](Oc2ccccc2COC(=O)C2(O)C=CCCC2=O)O[C@H](COC(=O)C2(O)C=CCCC2=O)[C@@H](O)[C@@H]1O (some centres undefined) | 0.676
C[C@H]1CC2C([C@@H](O)C[C@@]3(C)C2CC[C@]3(O)C(=O)CO)[C@@]2(C)C=CC(=O)C=C12 (some centres undefined) | -0.69
CCOC(=O)c1ccc(N2NC(=O)C(=Cc3ccc([N+](=O)[O-])o3)C2=O)cc1 | -1.33
COc1cccc(O)c1O | -1.23
CC(C)OC(=O)OCOP(=O)(CO[C@H](C)Cn1cnc2c(N)ncnc21)OCOC(=O)OC(C)C | -1.23
COC(=O)C1=C(C)NC(C)=C(C(=O)OCCSc2ccccc2)C1C (centres undefined) | 1.68
C[C@@H]1CC[C@]2(C(=O)O)CC[C@]3(C(=O)O)C(=CCC4[C@@]5(C)CC[C@H](O[C@@H]6O[C@H](C)[C@H](O)[C@H](O)[C@H]6O)C(C)(C)C5CC[C@]43C)C2[C@H]1C (some centres undefined) | 2.14
CC1CC[C@@]2(OC1)O[C@H]1CC3C4CC=C5C[C@@H](O[C@@H]6O[C@H](CO)[C@@H](O[C@@H]7O[C@@H](C)[C@H](O)[C@@H](O)[C@H]7O)[C@H](O)[C@H]6O[C@@H]6O[C@@H](C)[C@H](O)[C@@H](O)[C@H]6O)CC[C@]5(C)C4CC[C@]3(C)[C@@]1(O)[C@@H]2C (some centres undefined) | -1.93
O=C(COc1ccc(Cl)cc1)N1CCN(Cc2ccc3c(c2)OCO3)CC1 | -0.73
Nc1nc(N)c2nc(-c3ccccc3)c(N)nc2n1 | 3.68
O=C(NCCCCN1CCN(c2cccc(Cl)c2Cl)CC1)c1ccc2c(c1)Cc1ccccc1-2 | -2.23
CC(=O)c1ccc(N2CCOCC2)cc1O | 2.03
O=C(O)c1ccc2c(c1)nc(Nc1cccc(Cl)c1)c1ccncc12 | 12.4
CC(=O)O[C@H]1C[C@@]2(C)[C@@H](CC[C@H]3[C@@]4(C)C=CC(=O)[C@@H](C)[C@@H]4[C@H](OC(C)=O)C(=O)[C@@]32C)/C1=C(\CCC=C(C)C)C(=O)O | -0.662
CC[C@]1(O)CC2CN(CCc3c([nH]c4ccccc34)[C@@](C(=O)OC)(c3cc4c(cc3OC)N(C)[C@H]3[C@@](O)(C(=O)OC)[C@H](OC(C)=O)[C@]5(CC)C=CCN6CC[C@]43[C@@H]65)C2)C1 (some centres undefined) | 6.51
CC(=O)N1CCCC1C(=O)O (centres undefined) | 0.131
O=C(C=Cc1c(C(=O)O)[nH]c2cc(Cl)cc(Cl)c12)Nc1ccccc1 | 0.447
C=C(C(=O)O)C1CCC2(C)CCC(O)C2(C(C)=O)C1 (centres undefined) | 1.41
COc1ccc(C(=O)O[C@H]2CC(C)=CC[C@]3(C)[C@@H]2[C@](O)(C(C)C)C[C@@H]3O)cc1 | 0.148

Compound | cell shape (Z-score)
Cc1ccsc1/C=C/C1=NCCCN1C | 0.532
N#C[C@@H](O[C@@H]1O[C@H](CO)[C@@H](O)[C@H](O)[C@H]1O[C@@H]1O[C@H](CO)[C@@H](O)[C@H](O)[C@H]1O)c1ccccc1 | 0.85 ± 0.086
O=C1C[C@H](c2ccccc2)Oc2c(Cc3ccccc3O)c(O)cc(O)c21 | 0.177
CC1(C)CC[C@]2(C(=O)O[C@@H]3O[C@H](CO)[C@@H](O)[C@H](O)[C@H]3O)CC[C@]3(C)C(=CCC4[C@@]5(C)CC[C@H](O[C@@H]6O[C@H](C(=O)O)[C@@H](O)[C@H](O)[C@H]6O)C(C)(C)C5CC[C@]43C)C2C1 (some centres undefined) | -1.7
O=c1cc(-c2ccc(O)c(O)c2)oc2c(C3O[C@H](CO)[C@H](O)[C@H](O)[C@H]3O)c(O)cc(O)c12 (some centres undefined) | 1.83
COP(=O)(OC)OC(c1ccc(Cl)cc1)P(=O)(OC)OC (centres undefined) | 3.91
Cn1nnc2c(C(N)=O)ncn2c1=O | 2.98
C#C[C@]1(OC(C)=O)CCC2C3CCC4=C/C(=N/O)CCC4C3CC[C@@]21CC (some centres undefined) | 1.53
CC1(C)CCC(CN2CCN(c3ccc(C(=O)NS(=O)(=O)c4ccc(NCC5CCOCC5)c([N+](=O)[O-])c4)c(Oc4cnc5[nH]ccc5c4)c3)CC2)=C(c2ccc(Cl)cc2)C1 | 6.74
CC(C)NCC(O)COc1cccc2[nH]ccc12 (centres undefined) | 3.29
N#CC(Cc1ccc(O)cc1)c1ccc(O)cc1 (centres undefined) | 4.76
CN(Cc1cc(Br)cc(Br)c1N)C1CCCCC1 | 2.37
C[C@]12C=CC(=O)C=C1CCC1C2[C@@H](O)C[C@@]2(C)C1CC[C@]2(O)C(=O)CO (some centres undefined) | 0.502
O=c1c(O[C@@H]2O[C@H](CO)[C@H](O)[C@H](O)[C@H]2O)c(-c2cc(O)c(O)c(O)c2)oc2cc(O)cc(O)c12 | 2.9
Nc1ncnc2c1ncn2C1CCCO1 (centres undefined) | 0.526
CC(=O)Nc1ccc(OCC(O)CNC(C)C)cc1 (centres undefined) | 0.523
COc1cc([C@@H]2Oc3c(O)cc([C@H]4Oc5cc(O)cc(O)c5C(=O)[C@@H]4O)cc3[C@H]2CO)ccc1O | -2.03
Cc1cc(O)c2c(c1)C(=O)C1=C(C2=O)C(O)C(O)C(O)C1O (centres undefined) | -13.9
CC(C)CCCC(C)[C@H]1CCC2C3C(=O)C=C4C[C@@H](O)CC[C@]4(C)C3CC[C@@]21C (some centres undefined) | 0.162
CCC1(C)C(=O)C=C2C(=COC(C)=C2C)C1O (centres undefined) | 0.48 ± 1.3

Laid out differently: results already given.
Compound	cell shape (Z-score)
CC1(C)CC[C@]2(C(=O)O[C@@H]3O[C@H](CO)[C@@H](O)[C@H](O)[C@H]3O)CC[C@]3(C)C(=CCC4[C@@]5(C)CC[C@H](O[C@@H]6O[C@H](C(=O)O)[C@@H](O)[C@H](O)[C@H]6O)C(C)(C)C5CC[C@]43C)C2C1 (some centres undefined)	-1.7
O=c1cc(-c2ccc(O)c(O)c2)oc2c(C3O[C@H](CO)[C@H](O)[C@H](O)[C@H]3O)c(O)cc(O)c12 (some centres undefined)	1.83
COP(=O)(OC)OC(c1ccc(Cl)cc1)P(=O)(OC)OC (centres undefined)	3.91
Cn1nnc2c(C(N)=O)ncn2c1=O	2.98
C#C[C@]1(OC(C)=O)CCC2C3CCC4=C/C(=N/O)CCC4C3CC[C@@]21CC (some centres undefined)	1.53
CC1(C)CCC(CN2CCN(c3ccc(C(=O)NS(=O)(=O)c4ccc(NCC5CCOCC5)c([N+](=O)[O-])c4)c(Oc4cnc5[nH]ccc5c4)c3)CC2)=C(c2ccc(Cl)cc2)C1	6.74
CC(C)NCC(O)COc1cccc2[nH]ccc12 (centres undefined)	3.29
N#CC(Cc1ccc(O)cc1)c1ccc(O)cc1 (centres undefined)	4.76
CN(Cc1cc(Br)cc(Br)c1N)C1CCCCC1	2.37
C[C@]12C=CC(=O)C=C1CCC1C2[C@@H](O)C[C@@]2(C)C1CC[C@]2(O)C(=O)CO (some centres undefined)	0.502
O=c1c(O[C@@H]2O[C@H](CO)[C@H](O)[C@H](O)[C@H]2O)c(-c2cc(O)c(O)c(O)c2)oc2cc(O)cc(O)c12	2.9
Nc1ncnc2c1ncn2C1CCCO1 (centres undefined)	0.526
CC(=O)Nc1ccc(OCC(O)CNC(C)C)cc1 (centres undefined)	0.523
COc1cc([C@@H]2Oc3c(O)cc([C@H]4Oc5cc(O)cc(O)c5C(=O)[C@@H]4O)cc3[C@H]2CO)ccc1O	-2.03
Cc1cc(O)c2c(c1)C(=O)C1=C(C2=O)C(O)C(O)C(O)C1O (centres undefined)	-13.9
CC(C)CCCC(C)[C@H]1CCC2C3C(=O)C=C4C[C@@H](O)CC[C@]4(C)C3CC[C@@]21C (some centres undefined)	0.162
CCC1(C)C(=O)C=C2C(=COC(C)=C2C)C1O (centres undefined)	0.48 ± 1.3
